The supplement of paper PMC12578635
The other results are listed elsewhere or left out. No stated cut-off is given here; in the data, active = 150% or more and inactive = the rest. Many values rest on one well or one pass, so single values are uncertain.

test system: Staphylococcus aureus JE2-lux inside RAW 264.7 macrophages; experiment: intracellular bacterial bioluminescence relative to DMSO vehicle; higher = higher intracellular bacterial metabolic activity; details: 10 µM; treatment time 4 h; gentamicin 50 µg/ml

| Compound | intracellular bacterial bioluminescence |
| --- | --- |
| O=C1COc2ccc(S(=O)(=O)Nc3cccc(C(=O)N4CCOCC4)c3)cc2N1 | inactive: 96.3% |
| Cc1csc2nc(O)c(C(=O)NCc3ccccn3)c(=O)n12 | inactive: 115% |
| Cc1sc(NC(=O)c2ccco2)nc1-c1ccc2c(c1)CCN2C(=O)C1CC1 | inactive: 50.9% |
| O=C(CC1CCN(C(=O)c2cc3cc(Cl)ccc3[nH]2)CC1)NCc1ccccc1Cl | inactive: 122% |
| COc1ccc(Cn2c(=O)c3cccnc3n(-c3ccccc3)c2=O)cc1 | inactive: 80% |
| O=C(CSc1nc(O)c2nc[nH]c2n1)N1CCN(c2ccccc2F)CC1 | inactive: 122% |
| COc1cccc(NC(=O)CSc2ncnc3c2sc2nc4ccccc4cc23)c1 | inactive: 102% |
| CC(NC(=O)Cc1csc2nc(-c3ccc(F)cc3)cn12)c1ccccc1 (stereo not given) | inactive: 88.2% |
| O=C(NCc1ccco1)c1cnc2n(c1=O)CCS2 | inactive: 89.3% |
| CCOC(=O)c1sc(NC(=O)CSC2=NN3CCCC(=O)N=C3S2)c(C(=O)OCC)c1C | inactive: 13.2% |
| COc1ccc2nc3sc(C(=O)Nc4nc(C)c(C)s4)c(N)c3cc2c1 | inactive: 71.4% |
| COc1c(Br)ccc2c1sc1ncnc(OC)c12 | inactive: 73.3% |
| CCS(=O)(=O)c1cccc(C(=O)Nc2nc3c(s2)COc2ccccc2-3)c1 | inactive: 120% |
| COC(=O)c1ccc2nc(NC(=O)c3ccc(C)cc3C)sc2c1 | inactive: 96.2% |
| C/C(=N/NC(=O)CSc1nc2ccccc2[nH]1)c1cccs1 | inactive: 98.5% |
| CC(=O)Nc1ccc(Nc2nc(-c3ccccc3)c3cc(C)ccc3n2)cc1 | inactive: 74.6% |
| CN1C(=O)c2cccc(NC(=O)c3cc(=O)c4ccccc4o3)c2C1=O | inactive: 118% |
| COc1cccc(/C=N/NC(=O)c2n[nH]c3c2CCc2ccccc2-3)c1 | inactive: 98.1% |
| CCCc1cc(=O)[nH]c(SCC(=O)Nc2cc(C)on2)n1 | inactive: 133% |
| CSc1nc2ccc3nc(Nc4nc5cc6c(cc5s4)OCO6)sc3c2s1 | inactive: 124% |
| Cc1ccc(N2C(=O)CC(Sc3ccccc3C(=O)O)C2=O)c(Br)c1 (stereo not given) | inactive: 92.1% |
| COc1ccc2o/c(=N\c3cccc(C#N)c3)c(C(=O)NC(C)=O)cc2c1 | inactive: 102% |
| CC(C)n1c(CN2CCN(c3ccc(F)cc3)CC2)nc2c1c(=O)n(C)c(=O)n2C | inactive: 125% |

| Compound | intracellular bacterial bioluminescence |
| --- | --- |
| COc1ccccc1Nc1nc(NCc2ccco2)c2ccccc2n1 | inactive: 86.2% |
| O=C(NCc1ccccc1)C(c1ccco1)N(Cc1ccc(F)cc1)C(=O)c1ccccn1 (stereo not given) | inactive: 83.4% |
| COc1ccc(OC)c(-n2c(C)cn3c4c(=O)[nH]c(=O)n(C)c4nc23)c1 | inactive: 122% |
| CCOC(=O)c1ccc(NC(=O)CSc2nccn2-c2cccc(C)c2)cc1 | inactive: 67% |
| Cc1cc2ccccc2n2c(=O)n(CCNC(=O)CN3C(=O)CCC3=O)nc12 | inactive: 98.6% |
| COc1ccc([N+](=O)[O-])cc1NC(=O)CCS(=O)(=O)c1ccc(F)cc1 | active: 156% |
| O=C1C=C(Nc2ccc(Cl)cc2)C(=O)N1c1cccc(C(F)(F)F)c1 | inactive: 89.6% |
| CCN(CC)CCNC(=O)c1cc2c(=O)n3ccccc3nc2s1 | inactive: 83.9% |
| Cc1ccc(-n2ccnc2SCc2nc(-c3ccc(Cl)cc3)no2)cc1 | inactive: 49.8% |
| COc1ccc(C(=O)NCc2ccc3c4c(cccc24)C(=O)N3)cc1OC | inactive: 104% |
| COc1cccc2sc(NC(=O)c3coc4ccccc4c3=O)nc12 | inactive: 45.9% |
| O=C(CCCS(=O)(=O)c1ccccc1)Nc1nc2ccc([N+](=O)[O-])cc2s1 | inactive: 122% |
| Cc1ccc2cc3c(nc2c1)sc1c(SCC(=O)NCc2ccccc2)ncnc13 | inactive: 107% |
| Cn1c(SCC(=O)NCCCc2ccccc2)nc2c(-c3ccccc3)csc2c1=O | inactive: 102% |
| CC1(C(=O)Nc2ncc(Cc3cccc(C(F)(F)F)c3)s2)Cc2ccccc2C(=O)O1 (stereo not given) | inactive: 72.6% |
| CCc1ccccc1NC(=O)Cc1c(C)nn(-c2nc(-c3ccc(C)cc3)cs2)c1O | inactive: 99.4% |
| Cc1ccc(S(=O)(=O)Nc2ccccc2C(=O)Nc2sc3c(c2C(N)=O)CC(C)CC3)cc1 (stereo not given) | inactive: 100% |
| CC(=O)Nc1ccc2nc(NC(=O)C(C)NS(=O)(=O)c3ccc(C)cc3)sc2c1 (stereo not given) | active: 150% |
| COc1cccc2cc(C(=O)NCc3ccc4c(c3)OCO4)c(=O)oc12 | inactive: 115% |
| CCOc1ccccc1-c1cc(C(=O)Nc2ccc3c(c2)nc(CC)n3C)[nH]n1 | inactive: 91.6% |
| Cc1oc(-c2ccno2)cc1S(=O)(=O)N1c2ccccc2CC1C (stereo not given) | inactive: 95.4% |
| O=C(CCn1c(=S)[nH]c2ccccc2c1=O)N1CCOCC1 | inactive: 59% |
| Cc1ccc(-n2ccnc(NCCC(C)C)c2=O)cc1Cl | inactive: 60.1% |

| Compound | intracellular bacterial bioluminescence |
| --- | --- |
| CCOc1ccc(NC(=O)Cn2nnc(C(=O)Nc3ccccc3F)c2N)cc1 | inactive: 82.9% |
| COc1cccc(NC(=S)Nc2c(C)n(C)n(-c3ccccc3)c2=O)c1 | inactive: 104% |
| Nn1c(SCc2ccccc2)nnc1-c1ccco1 | inactive: 64.8% |
| Cc1nc2cc(-c3noc(CNS(=O)(=O)c4ccccc4)n3)ccc2n(C2CCCC2)c1=O | inactive: 97.2% |
| CCN1CCC(CCc2ccc(NC(=O)c3cccc4c3C(=O)N(C)C4)cc2)C(C)C1 (stereo not given) | inactive: 129% |
| CC1=NN(Cc2ccc(C)cc2)c2nc3c(c(=O)n(C)c(=O)n3C)n2C1 | inactive: 103% |
| COc1ccc(CCNC(=O)C2CCCN2C(=O)Nc2ccc(F)cc2)cc1OC (stereo not given) | inactive: 113% |
| CCOC(=O)c1sc(Nc2nc3ccc(F)cc3s2)nc1C | inactive: 108% |
| Cc1nc(N2CCN(C(=O)c3ccco3)CC2)c2nnn(Cc3ccccc3)c2n1 | inactive: 38% |
| COc1cc(Nc2ncc3c(n2)CCN(S(=O)(=O)c2cccc4nsnc24)C3)cc(OC)c1 | inactive: 47.4% |
| Cc1cc(NC(=O)c2c3c(nc4ccccc24)C(=O)N(C2CCCCC2)C3)no1 | inactive: 110% |
| O=C1NC(c2ccc(Cl)cc2)c2c1oc1ccccc1c2=O (stereo not given) | inactive: 92.4% |
| CC(=O)Cc1nsc(NC(=O)c2ccoc2COc2ccc(C)cc2)n1 | inactive: 113% |
| C=CCn1c(=O)c2c3c(sc2n2c(Nc4ccccc4)nnc12)CCCC3 | inactive: 109% |
| C=CCOc1ccccc1/C=C1/SC(N2CCN(C)CC2)=NC1=O | inactive: 85.2% |
| O=C(NCc1ccc2c(c1)OCO2)C(=O)NCC(c1ccco1)N1CCN(c2ccccc2)CC1 (stereo not given) | inactive: 76.4% |
| CC(=O)NC1(c2ccccc2F)CCN(Cc2cc3ccccc3nc2N(C)C)CC1 | inactive: 107% |
| O=C(Nc1cccc(NC(=O)c2ccccn2)c1)c1ccc2nccnc2c1 | inactive: 104% |
| O=C(Nc1ccc2ncsc2c1)c1cc2ccccc2oc1=O | inactive: 111% |
| N#CC1=C(N)OC2=C(C(=O)CCC2)C1c1ccco1 (stereo not given) | inactive: 120% |
| Cc1nc2c(C(=O)NCc3cccnc3)cnn2c(O)c1Cc1ccc(F)cc1Cl | inactive: 68.8% |
| Cc1[nH]c2nc(N(Cc3ccc(Cl)cc3)C(=O)CCc3ccccc3)nn2c(=O)c1C | inactive: 93.3% |
| Cc1ccc(Cc2nnc(-c3cc(NC(=O)Nc4ccc5c(c4)OCCO5)ccc3F)o2)cc1 | inactive: 48.7% |

| Compound | intracellular bacterial bioluminescence |
| --- | --- |
| O=C(N1CCC(n2nc(C3CC3)ccc2=O)CC1)C1(c2ccccc2)CC1 | inactive: 100% |
| CC[C@@H](Cn1nc(-c2ccc(F)c(F)c2)ccc1=O)NC(=O)Cc1ccccc1F | inactive: 110% |
| O=C(Nc1ccc2c(c1)CCCN2C(=O)C1CC1)c1ccccc1C(F)(F)F | inactive: 115% |
| O=C(CN1CCc2nc(N3CCCC3)[nH]c(=O)c2C1)Nc1nccs1 | inactive: 92.7% |
| COc1cc(NC(=O)c2cnn3c4c(cnc23)C(=O)CC(C)(C)C4)cc(OC)c1 | inactive: 86.4% |
| Cc1ccc(NC(=O)c2ccnc(Nc3ccc(F)cc3)c2)cc1 | inactive: 112% |
| COCCN(Cc1cc2ccc(C)c(C)c2nc1Cl)C(=O)Nc1ccccc1C | inactive: 84% |
| COC(=O)c1sc2ccccc2c1NC(=O)c1cc(Cl)ccc1[N+](=O)[O-] | inactive: 94.7% |
| CCOc1ccc(NC(=O)Nc2c(-c3cccnc3)[nH]c3ccccc23)cc1 | inactive: 88.9% |
| Nc1nc(SCC(=O)NCc2ccccc2)nc2sc3c(c12)CCC3 | inactive: 77.2% |
| CC1=C(C(=O)OC2CCCCCCC2)C(c2ccccc2Cl)NC(=O)N1 (stereo not given) | inactive: 32.4% |
| COc1cc(C2CC(=O)Nc3c2cnn3-c2nc3ccccc3s2)ccc1OCc1ccc(C)cc1 (stereo not given) | inactive: 105% |
| CC(C)CCNC(=O)CSc1nc(-c2cccc(Cl)c2)nc2cc(=O)[nH]n12 | inactive: 102% |
| CCOc1ccc(NC(=O)Cn2c3ccccc3n3c(=O)cc(-c4ccccn4)nc23)cc1 | inactive: 92.7% |
| Cc1cc(NS(=O)(=O)c2ccc(NC(=O)c3cnc4sccn4c3=O)cc2)nc(C)n1 | inactive: 122% |
| COc1ccc(C)c2sc(N(Cc3ccccc3)C(=O)c3ccco3)nc12 | inactive: 121% |
| COCCNC(=O)COc1ncnc2onc(-c3ccc(F)cc3)c12 | inactive: 111% |
| COc1ccccc1Cn1c(=S)[nH]c2cc(C(=O)N3CCCCC3)ccc2c1=O | inactive: 18.4% |
| Cn1ncc2c1CCc1sc(NC(=O)CCC3CCCCC3=O)nc1-2 (stereo not given) | inactive: 74.3% |
| Cc1oc2ncnc(N3CCCC(C(=O)Nc4ccc(F)c(F)c4)C3)c2c1C (stereo not given) | inactive: 85.7% |
| CC1CCc2c(sc3ncn(C4CCN(C(=O)c5cc[nH]n5)CC4)c(=O)c23)C1 (stereo not given) | inactive: 87.9% |
